1 compound from US12345718B2, “Method for determining the haemoglobin content of an erythroid cell” (UNIVERSITÉ PARIS EST CRÉTEIL VAL DE MARNE, priority 2016, dated 2025) can be followed below.

Some results come without the dose or concentration used.

The nature of the data set: Complete blood count / biological data of SS patients during treatment with hydroxyurea. The class given is in vivo, human. As to conditions: M6 of hydroxyurea, median.

Take `NC(=O)NO` [hydroxyurea]: the Leukocytes is given as 9 Giga/l and the Platelets worked out at 318 giga/1.
